This is one part of the list. The signal is at background level for most entries.
Columns and labels:
Assay in all cases: fluorescence intensity of antibody binding to polysaccharide-coupled beads; higher = stronger binding
[1] = target: pneumococcal polysaccharide Pn31
Experimental: (§1)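 Recombinant rhesus-murine chimeric IgG1 antibodies were tested against antigen-coupled MagPlex beads in a 96-plex Luminex direct immunoassay (dLIA). The beads carried pneumococcal capsular polysaccharides of 93 serotypes plus C-polysaccharides. Antibody was added at 0.1–12,500 ng/mL for 1 h, then PE anti-mouse IgG, and net MFI was read on a Bio-Plex 3D. Only the rhesus variable regions are printed; constant regions are murine IgG1/kappa/lambda, and the signal peptide is MGWSCIILFLVATATGVHS.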

[2] = target: pneumococcal polysaccharide Pn32A
Experimental: as §1

[3] = target: pneumococcal polysaccharide Pn32F
Experimental: as §1

[4] = target: pneumococcal polysaccharide Pn33A
Experimental: as §1

[5] = target: pneumococcal polysaccharide Pn33B
Experimental: as §1

[6] = target: pneumococcal polysaccharide Pn33C
Experimental: as §1

[7] = target: pneumococcal polysaccharide Pn33D
Experimental: as §1

[8] = target: pneumococcal polysaccharide Pn33F
Experimental: as §1

[9] = target: pneumococcal polysaccharide Pn34
Experimental: as §1

[10] = target: pneumococcal polysaccharide Pn35A
Experimental: as §1

[11] = target: pneumococcal polysaccharide Pn35B
Experimental: as §1

[12] = target: pneumococcal polysaccharide Pn35C
Experimental: as §1

[13] = antibody concentration 81.7561 ng/mL
[14] = antibody concentration 437.17 ng/mL
[15] = antibody concentration 2337.65 ng/mL
[16] = antibody concentration 12500 ng/mL
[17] = antibody concentration 0.1 ng/mL
[18] = antibody concentration 0.534724 ng/mL
[19] = antibody concentration 2.8593 ng/mL
[20] = antibody concentration 15.2894 ng/mL

B1: 4-99.4 (protein)
chain 1: QVQLQESGPGLVKPSETLSLTCAVSGYSISSAYFWGWIRQPPGKGLEYIGYISGEGGKSYYNPSLMSRVTISKDTSKNQFSLKLNTVTAADTAVYYCARRAILVGFDLWGQGVLVTVSS
chain 2: QAAPTQPPSVSGSPGQSVTISCTGSNSDIGYYNAVSWYQQHPGKAPKLMIYEVSKRPSGVSDRLTGSKSGNTASLTISGLQAEDEADYYCSSYAGSNTYIFGTGTRLTVL
fluorescence intensity [1, 13]: 14 MFI
fluorescence intensity [1, 14]: 15.5 MFI
fluorescence intensity [1, 15]: 16.5 MFI
fluorescence intensity [1, 16]: 65 MFI
fluorescence intensity [2, 17]: 17.5 MFI
fluorescence intensity [2, 18]: 18 MFI
fluorescence intensity [2, 19]: 17.5 MFI
fluorescence intensity [2, 20]: 19 MFI
fluorescence intensity [2, 13]: 18.5 MFI
fluorescence intensity [2, 14]: 19 MFI
fluorescence intensity [2, 15]: 19.5 MFI
fluorescence intensity [2, 16]: 37 MFI
fluorescence intensity [3, 17]: 29 MFI
fluorescence intensity [3, 18]: 29 MFI
fluorescence intensity [3, 19]: 28.5 MFI
fluorescence intensity [3, 20]: 28 MFI
fluorescence intensity [3, 13]: 28.8 MFI
fluorescence intensity [3, 14]: 31.5 MFI
fluorescence intensity [3, 15]: 34.5 MFI
fluorescence intensity [3, 16]: 64.8 MFI
fluorescence intensity [4, 17]: 17.5 MFI
fluorescence intensity [4, 18]: 20 MFI
fluorescence intensity [4, 19]: 17 MFI
fluorescence intensity [4, 20]: 19.8 MFI
fluorescence intensity [4, 13]: 18 MFI
fluorescence intensity [4, 14]: 20 MFI
fluorescence intensity [4, 15]: 32 MFI
fluorescence intensity [4, 16]: 194 MFI
fluorescence intensity [5, 17]: 17 MFI
fluorescence intensity [5, 18]: 18.5 MFI
fluorescence intensity [5, 19]: 17.5 MFI
fluorescence intensity [5, 20]: 17.5 MFI
fluorescence intensity [5, 13]: 18.5 MFI
fluorescence intensity [5, 14]: 17.8 MFI
fluorescence intensity [5, 15]: 19 MFI
fluorescence intensity [5, 16]: 22.5 MFI
fluorescence intensity [6, 17]: 20 MFI
fluorescence intensity [6, 18]: 18.5 MFI
fluorescence intensity [6, 19]: 19 MFI
fluorescence intensity [6, 20]: 19.5 MFI
fluorescence intensity [6, 13]: 19.5 MFI
fluorescence intensity [6, 14]: 20 MFI
fluorescence intensity [6, 15]: 19.8 MFI
fluorescence intensity [6, 16]: 36 MFI
fluorescence intensity [7, 17]: 16.8 MFI
fluorescence intensity [7, 18]: 16.8 MFI
fluorescence intensity [7, 19]: 16.5 MFI
fluorescence intensity [7, 20]: 15.5 MFI
fluorescence intensity [7, 13]: 15 MFI
fluorescence intensity [7, 14]: 16 MFI
fluorescence intensity [7, 15]: 17 MFI
fluorescence intensity [7, 16]: 23 MFI
fluorescence intensity [8, 17]: 13 MFI
fluorescence intensity [8, 18]: 13.8 MFI
fluorescence intensity [8, 19]: 13 MFI
fluorescence intensity [8, 20]: 15 MFI
fluorescence intensity [8, 13]: 13 MFI
fluorescence intensity [8, 14]: 15 MFI
fluorescence intensity [8, 15]: 18.5 MFI
fluorescence intensity [8, 16]: 91 MFI
fluorescence intensity [9, 17]: 12.5 MFI
fluorescence intensity [9, 18]: 15 MFI
fluorescence intensity [9, 19]: 15 MFI
fluorescence intensity [9, 20]: 15 MFI
fluorescence intensity [9, 13]: 15.5 MFI
fluorescence intensity [9, 14]: 15 MFI
fluorescence intensity [9, 15]: 15.5 MFI
fluorescence intensity [9, 16]: 19.8 MFI
fluorescence intensity [10, 17]: 18.2 MFI
fluorescence intensity [10, 18]: 17.5 MFI
fluorescence intensity [10, 19]: 18 MFI
fluorescence intensity [10, 20]: 17.8 MFI
fluorescence intensity [10, 13]: 17 MFI
fluorescence intensity [10, 14]: 17 MFI
fluorescence intensity [10, 15]: 19.5 MFI
fluorescence intensity [10, 16]: 48.5 MFI
fluorescence intensity [11, 17]: 19.2 MFI
fluorescence intensity [11, 18]: 19 MFI
fluorescence intensity [11, 19]: 18 MFI
fluorescence intensity [11, 20]: 17.8 MFI
fluorescence intensity [11, 13]: 19.2 MFI
fluorescence intensity [11, 14]: 19.5 MFI
fluorescence intensity [11, 15]: 20 MFI
fluorescence intensity [11, 16]: 37.5 MFI
fluorescence intensity [12, 17]: 19.8 MFI
fluorescence intensity [12, 18]: 20.5 MFI
fluorescence intensity [12, 19]: 19.5 MFI
fluorescence intensity [12, 20]: 19.5 MFI
fluorescence intensity [12, 13]: 20.5 MFI
fluorescence intensity [12, 14]: 20.2 MFI
